Article PMC10837402 (EJNMMI Radiopharmacy and Chemistry, 2024)

Test: general procedure: Fmoc solid-phase peptide synthesis; Rink Amide MBHA resin; HATU/HOAt/DIEA
Details: for final HPLC purity: analytical HPLC (Luna C18), UV 220 nm
[1] = whole synthesis, scale of the general procedure 0.05 mmol

Substance | final HPLC purity [1] [%] | isolated yield [1] [%] | step yield (late stage modification step) [%] | final HPLC purity (late stage modification step) [%]
D-Phe-Gln-4-Me-Trp-Ala-Val-Gly-His-Leu-Thz-NH2 | 99 | 26 |  | 
DOTA-Pip-D-Phe-Gln-2-Me-Trp-Ala-Val-Gly-His-Leu-Thz-NH2 | 99 | 16 |  | 
D-Phe-Gln-6-Cl-Trp-Ala-Val-Gly-His-Leu-Thz-NH2 | 98 | 18 |  | 
DOTA-Pip-D-Phe-Gln-7-F-Trp-Ala-Val-Gly-His-Leu-Thz-NH2 | 98 | 33 |  | 
DOTA-Pip-D-Phe-Gln-5-Me-Trp-Ala-Val-Gly-His-Leu-Thz-NH2 | 98 | 19 |  | 
Ga-DOTA-Pip-D-Phe-Gln-Trp-Ala-Val-Gly-NMe-His-Leu-Thz-NH2 |  |  | 73 | 99
D-Phe-Gln-Trp-Aib-Val-Gly-His-Leu-Thz-NH2 | 99 | 13 |  | 
D-Phe-Gln-7-F-Trp-Ala-Val-Gly-His-Leu-Thz-NH2 | 98 | 24 |  | 
Ga-DOTA-Pip-D-Phe-Gln-5-Me-Trp-Ala-Val-Gly-His-Leu-Thz-NH2 |  |  | 84 | 98
D-Phe-Gln-6-F-Trp-Ala-Val-Gly-His-Leu-Thz-NH2 | 99 | 40 |  | 
D-Phe-Gln-Trp-2-Abu-Val-Gly-His-Leu-Thz-NH2 | 99 | 27 |  | 
D-Phe-Gln-4-F-Trp-Ala-Val-Gly-His-Leu-Thz-NH2 | 96 | 36 |  | 
Ga-DOTA-Pip-D-Phe-Gln-Trp-Ala-Tle-Gly-His-Leu-Thz-NH2 |  |  | 59 | 99
D-Phe-Gln-5-Me-Trp-Ala-Val-Gly-His-Leu-Thz-NH2 | 98 | 33 |  | 
D-Phe-Gln-Trp-Ala-cyclopropylglycine-Gly-His-Leu-Thz-NH2 | 98 | 11 |  | 
D-Phe-Gln-5-F-Trp-Ala-Val-Gly-His-Leu-Thz-NH2 | 99 | 46 |  | 
D-Phe-Hse-Trp-Ala-Val-Gly-His-Leu-Thz-NH2 | 98 | 2.2 |  | 
D-Phe-Gln-Trp-Ala-2,3-dehydro-Val-Gly-His-Leu-Thz-NH2 | 99 | 5.0 |  | 
DOTA-Pip-D-Phe-Gln-7-F-Trp-Ala-Tle-Gly-NMe-His-Leu-Thz-NH2 | 97 | 21 |  | 
DOTA-Pip-D-Phe-Gln-Trp-Ala-Val-Gly-NMe-His-Leu-Thz-NH2 | 95 | 19 |  | 
DOTA-Pip-D-Phe-His-Trp-Ala-Tle-Gly-NMe-His-Leu-Thz-NH2 | 99 | 17 |  | 
DOTA-Pip-D-Phe-Gln-Trp-Ala-Tle-Gly-His-Leu-Thz-NH2 | 99 | 26 |  | 
D-Phe-Gln-D-Tpi-Ala-Val-Gly-His-Leu-Thz-NH2 | 96 | 20 |  | 

Substance | final HPLC purity [1] [%] | isolated yield [1] [%] | step yield (late stage modification step) [%] | final HPLC purity (late stage modification step) [%]
D-Phe-Gln-Trp-Ala-3-amino-1-carboxymethylcarprolactame-His-Leu-Thz-NH2 | 95 | 10 |  | 
Ga-DOTA-Pip-D-Phe-Gln-7-F-Trp-Ala-Tle-Gly-NMe-His-Leu-Thz-NH2 |  |  | 87 | 99
DOTA-Pip-D-Phe-Gln-Trp-Ala-Tle-Gly-NMe-His-Leu-Thz-NH2 | 97 | 11 |  | 
Ga-DOTA-Pip-D-Phe-Gln-α-Me-Trp-Ala-Val-Gly-His-Leu-Thz-NH2 |  |  | 72 | 97
Ga-DOTA-Pip-D-Phe-His-Trp-Ala-Tle-Gly-NMe-His-Leu-Thz-NH2 |  |  | 53 | 99
Ga-DOTA-Pip-D-Phe-Gln-7-F-Trp-Ala-Val-Gly-His-Leu-Thz-NH2 |  |  | 82 | 99
D-Phe-Gln-Trp-Ala-cyclobutaneacetic acid-Gly-His-Leu-Thz-NH2 | 98 | 15 |  | 
D-Phe-Gln-7-Aza-Trp-Ala-Val-Gly-His-Leu-Thz-NH2 | 99 | 8.4 |  | 
D-Phe-Gln-7-Me-Trp-Ala-Val-Gly-His-Leu-Thz-NH2 | 99 | 25 |  | 
Ga-DOTA-Pip-D-Phe-Gln-Trp-Ala-Tle-Gly-NMe-His-Leu-Thz-NH2 |  |  | 54 | 98
D-Phe-Gln-5-OH-Trp-Ala-Val-Gly-His-Leu-Thz-NH2 | 99 | 21 |  | 
D-Phe-Gln-Trp-Ala-2-Abu-Gly-His-Leu-Thz-NH2 | 96 | 46 |  | 
D-Phe-Gln-Trp-Ala-Val-Gly-His-Leu-Thz-NH2 | 99 | 41 |  | 
Ga-DOTA-Pip-D-Phe-Gln-2-Me-Trp-Ala-Val-Gly-His-Leu-Thz-NH2 |  |  | 81 | 99
Ga-DOTA-Pip-D-Phe-His-Trp-Ala-Tle-NMe-Gly-NMe-His-Leu-Thz-NH2 |  |  | 47 | 99
D-Phe-Gln-Trp-Ala-Tle-Gly-His-Leu-Thz-NH2 (FQWA; D-residue, Tle, Thz, C-terminal amide; printed: Phe-Gln-Trp-Ala-) | 99 | 26 |  | 
D-Phe-Gln-2-Me-Trp-Ala-Val-Gly-His-Leu-Thz-NH2 | 99 | 23 |  | 
D-Phe-Gln-Trp(Me)-Ala-Val-Gly-His-Leu-Thz-NH2 | 99 | 30 |  | 
D-Phe-Gln-Trp-Ala-Val-Gly-NMe-His-Leu-Thz-NH2 | 98 | 29 |  | 
D-Phe-Gln-Bta-Ala-Val-Gly-His-Leu-Thz-NH2 | 96 | 24 |  | 
D-Phe-Gln-6-Me-Trp-Ala-Val-Gly-His-Leu-Thz-NH2 | 99 | 29 |  | 
DOTA-Pip-D-Phe-His-Trp-Ala-Tle-NMe-Gly-NMe-His-Leu-Thz-NH2 | 99 | 16 |  | 
DOTA-Pip- D-Phe-Gln-α-Me-Trp-Ala-Val-Gly-His-Leu-Thz-NH2 | 98 | 4.0 |  | 
